In the supplement of paper PMC10849652:
This is one part of the list.

Sequences of proteins named here, by UniProt entry; tags and fusion partners are left off. A change or cut given only in a name is not applied to a line headed by its entry.
UniProt P07910: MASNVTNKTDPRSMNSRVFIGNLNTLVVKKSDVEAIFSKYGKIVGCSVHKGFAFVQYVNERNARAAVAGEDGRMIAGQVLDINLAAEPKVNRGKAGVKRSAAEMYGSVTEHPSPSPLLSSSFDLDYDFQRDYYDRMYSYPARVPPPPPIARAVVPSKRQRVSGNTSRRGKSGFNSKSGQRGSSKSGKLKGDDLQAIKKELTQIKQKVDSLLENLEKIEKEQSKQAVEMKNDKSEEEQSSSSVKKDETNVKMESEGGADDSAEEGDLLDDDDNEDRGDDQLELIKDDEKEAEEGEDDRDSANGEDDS
UniProt P11021: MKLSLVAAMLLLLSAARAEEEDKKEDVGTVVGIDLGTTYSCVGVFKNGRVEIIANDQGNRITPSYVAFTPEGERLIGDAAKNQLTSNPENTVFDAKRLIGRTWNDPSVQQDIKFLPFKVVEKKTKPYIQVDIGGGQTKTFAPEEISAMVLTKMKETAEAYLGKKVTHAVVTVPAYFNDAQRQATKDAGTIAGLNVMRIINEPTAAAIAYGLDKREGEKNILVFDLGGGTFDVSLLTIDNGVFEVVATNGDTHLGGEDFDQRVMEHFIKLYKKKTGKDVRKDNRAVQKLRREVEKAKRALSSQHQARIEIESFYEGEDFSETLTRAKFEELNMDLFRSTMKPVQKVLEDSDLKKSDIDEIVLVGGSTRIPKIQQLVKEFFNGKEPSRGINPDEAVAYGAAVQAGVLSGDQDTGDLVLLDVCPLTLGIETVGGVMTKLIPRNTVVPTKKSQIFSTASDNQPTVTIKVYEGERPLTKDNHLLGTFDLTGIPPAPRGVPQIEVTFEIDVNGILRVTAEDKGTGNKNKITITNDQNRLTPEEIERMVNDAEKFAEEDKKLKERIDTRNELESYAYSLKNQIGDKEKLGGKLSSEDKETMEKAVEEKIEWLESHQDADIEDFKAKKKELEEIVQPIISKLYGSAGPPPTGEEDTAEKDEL
UniProt P52597: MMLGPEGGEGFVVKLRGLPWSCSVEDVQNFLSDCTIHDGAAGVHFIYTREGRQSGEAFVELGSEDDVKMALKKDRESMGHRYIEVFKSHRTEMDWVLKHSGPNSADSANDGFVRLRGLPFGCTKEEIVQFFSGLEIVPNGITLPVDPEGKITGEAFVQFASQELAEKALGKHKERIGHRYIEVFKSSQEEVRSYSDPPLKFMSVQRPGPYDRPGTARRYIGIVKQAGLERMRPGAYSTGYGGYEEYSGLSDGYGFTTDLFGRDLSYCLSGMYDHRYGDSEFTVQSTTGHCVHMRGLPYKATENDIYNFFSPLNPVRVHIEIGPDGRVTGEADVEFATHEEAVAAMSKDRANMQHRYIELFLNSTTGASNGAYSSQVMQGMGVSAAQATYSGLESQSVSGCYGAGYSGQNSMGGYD
UniProt P34932: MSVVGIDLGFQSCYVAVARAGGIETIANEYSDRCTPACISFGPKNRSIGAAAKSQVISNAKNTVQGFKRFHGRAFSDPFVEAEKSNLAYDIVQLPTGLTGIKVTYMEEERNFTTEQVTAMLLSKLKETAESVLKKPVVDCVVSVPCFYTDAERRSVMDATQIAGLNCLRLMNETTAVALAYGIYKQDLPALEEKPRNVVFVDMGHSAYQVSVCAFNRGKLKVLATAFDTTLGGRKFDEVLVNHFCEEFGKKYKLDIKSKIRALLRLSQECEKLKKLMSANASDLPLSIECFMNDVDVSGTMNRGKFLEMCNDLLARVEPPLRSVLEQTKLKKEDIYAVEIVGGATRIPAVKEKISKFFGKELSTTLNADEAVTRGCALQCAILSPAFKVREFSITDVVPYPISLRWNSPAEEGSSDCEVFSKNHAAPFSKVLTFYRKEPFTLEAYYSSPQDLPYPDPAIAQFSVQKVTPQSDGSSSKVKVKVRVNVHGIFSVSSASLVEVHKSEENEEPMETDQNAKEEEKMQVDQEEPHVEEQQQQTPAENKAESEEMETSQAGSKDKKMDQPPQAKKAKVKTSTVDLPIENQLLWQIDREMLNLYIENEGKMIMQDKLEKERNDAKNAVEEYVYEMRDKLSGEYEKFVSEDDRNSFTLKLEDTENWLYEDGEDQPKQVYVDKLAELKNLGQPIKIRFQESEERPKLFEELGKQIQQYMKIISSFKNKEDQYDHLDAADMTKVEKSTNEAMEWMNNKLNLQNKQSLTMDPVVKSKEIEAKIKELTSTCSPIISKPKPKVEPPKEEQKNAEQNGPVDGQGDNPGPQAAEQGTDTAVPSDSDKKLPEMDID
UniProt Q9BW71: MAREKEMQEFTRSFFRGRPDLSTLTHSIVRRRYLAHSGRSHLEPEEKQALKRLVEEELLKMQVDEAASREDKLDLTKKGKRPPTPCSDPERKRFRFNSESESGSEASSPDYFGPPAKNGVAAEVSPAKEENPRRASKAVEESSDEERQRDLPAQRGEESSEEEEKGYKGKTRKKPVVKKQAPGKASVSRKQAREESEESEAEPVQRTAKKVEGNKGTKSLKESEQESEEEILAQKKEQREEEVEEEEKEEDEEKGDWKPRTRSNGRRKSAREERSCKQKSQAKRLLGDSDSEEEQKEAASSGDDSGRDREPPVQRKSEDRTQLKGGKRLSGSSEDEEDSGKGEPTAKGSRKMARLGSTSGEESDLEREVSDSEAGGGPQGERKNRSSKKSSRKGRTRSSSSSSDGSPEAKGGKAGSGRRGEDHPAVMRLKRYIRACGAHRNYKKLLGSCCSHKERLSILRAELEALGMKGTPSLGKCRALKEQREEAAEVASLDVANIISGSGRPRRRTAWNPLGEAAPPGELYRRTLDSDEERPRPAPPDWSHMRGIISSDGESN
UniProt P23327: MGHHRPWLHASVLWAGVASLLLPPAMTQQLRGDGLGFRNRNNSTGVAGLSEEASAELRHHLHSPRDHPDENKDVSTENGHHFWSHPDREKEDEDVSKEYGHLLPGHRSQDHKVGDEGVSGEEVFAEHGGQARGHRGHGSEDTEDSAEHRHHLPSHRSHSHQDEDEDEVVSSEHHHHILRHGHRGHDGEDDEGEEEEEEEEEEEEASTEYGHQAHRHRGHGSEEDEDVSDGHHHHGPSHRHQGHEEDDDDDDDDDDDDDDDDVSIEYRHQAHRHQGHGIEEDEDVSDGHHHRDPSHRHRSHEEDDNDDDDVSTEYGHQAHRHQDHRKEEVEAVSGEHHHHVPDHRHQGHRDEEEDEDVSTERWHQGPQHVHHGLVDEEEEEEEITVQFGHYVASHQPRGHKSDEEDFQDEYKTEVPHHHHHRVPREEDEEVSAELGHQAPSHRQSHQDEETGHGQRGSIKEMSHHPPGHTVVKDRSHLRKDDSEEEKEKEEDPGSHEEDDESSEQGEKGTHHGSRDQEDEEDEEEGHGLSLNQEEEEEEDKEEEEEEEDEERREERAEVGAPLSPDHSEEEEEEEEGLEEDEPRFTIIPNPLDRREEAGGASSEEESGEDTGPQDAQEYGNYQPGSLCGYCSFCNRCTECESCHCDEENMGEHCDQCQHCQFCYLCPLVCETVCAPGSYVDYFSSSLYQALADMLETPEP
UniProt Q9BQS7: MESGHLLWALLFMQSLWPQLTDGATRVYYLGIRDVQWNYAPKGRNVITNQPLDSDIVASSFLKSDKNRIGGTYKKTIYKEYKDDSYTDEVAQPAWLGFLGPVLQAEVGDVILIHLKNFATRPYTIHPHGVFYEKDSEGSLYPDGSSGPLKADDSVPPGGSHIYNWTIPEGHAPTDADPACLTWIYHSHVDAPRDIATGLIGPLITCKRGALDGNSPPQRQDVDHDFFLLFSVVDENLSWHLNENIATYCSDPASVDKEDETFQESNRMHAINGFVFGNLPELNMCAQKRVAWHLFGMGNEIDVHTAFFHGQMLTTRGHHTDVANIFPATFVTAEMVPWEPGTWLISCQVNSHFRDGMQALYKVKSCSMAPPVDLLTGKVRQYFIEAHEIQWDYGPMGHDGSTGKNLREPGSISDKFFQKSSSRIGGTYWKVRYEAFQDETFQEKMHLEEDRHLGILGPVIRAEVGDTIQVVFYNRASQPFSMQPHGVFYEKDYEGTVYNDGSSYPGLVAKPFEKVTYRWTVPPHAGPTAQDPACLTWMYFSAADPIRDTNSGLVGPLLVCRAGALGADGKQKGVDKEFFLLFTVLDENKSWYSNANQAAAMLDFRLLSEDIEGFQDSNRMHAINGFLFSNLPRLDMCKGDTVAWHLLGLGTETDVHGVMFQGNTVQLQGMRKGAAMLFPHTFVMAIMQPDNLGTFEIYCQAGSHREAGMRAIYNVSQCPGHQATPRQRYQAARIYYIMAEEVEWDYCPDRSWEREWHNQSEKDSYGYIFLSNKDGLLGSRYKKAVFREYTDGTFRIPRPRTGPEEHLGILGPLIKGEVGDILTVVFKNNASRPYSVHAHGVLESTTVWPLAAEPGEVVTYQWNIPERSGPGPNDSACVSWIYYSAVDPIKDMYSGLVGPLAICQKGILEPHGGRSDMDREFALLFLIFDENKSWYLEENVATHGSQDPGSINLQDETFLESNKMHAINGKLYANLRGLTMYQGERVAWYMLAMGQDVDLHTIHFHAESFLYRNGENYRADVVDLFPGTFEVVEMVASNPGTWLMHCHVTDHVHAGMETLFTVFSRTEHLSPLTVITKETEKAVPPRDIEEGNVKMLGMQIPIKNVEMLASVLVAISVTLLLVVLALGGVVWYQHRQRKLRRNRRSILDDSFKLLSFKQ
UniProt P09651: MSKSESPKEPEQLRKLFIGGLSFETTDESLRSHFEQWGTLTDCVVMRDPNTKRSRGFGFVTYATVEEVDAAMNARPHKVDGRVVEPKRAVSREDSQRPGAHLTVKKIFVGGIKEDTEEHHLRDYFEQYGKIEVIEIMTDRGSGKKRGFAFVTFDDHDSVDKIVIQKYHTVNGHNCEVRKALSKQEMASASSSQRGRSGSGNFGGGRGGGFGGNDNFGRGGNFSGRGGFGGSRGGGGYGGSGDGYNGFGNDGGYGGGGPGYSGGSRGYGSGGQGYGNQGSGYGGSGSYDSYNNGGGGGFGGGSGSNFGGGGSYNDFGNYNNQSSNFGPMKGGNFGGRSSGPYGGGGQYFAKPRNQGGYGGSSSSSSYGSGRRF
UniProt P17096: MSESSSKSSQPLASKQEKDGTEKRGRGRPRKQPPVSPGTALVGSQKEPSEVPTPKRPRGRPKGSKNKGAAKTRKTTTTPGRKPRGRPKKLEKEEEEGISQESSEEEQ
UniProt Q8IWL3: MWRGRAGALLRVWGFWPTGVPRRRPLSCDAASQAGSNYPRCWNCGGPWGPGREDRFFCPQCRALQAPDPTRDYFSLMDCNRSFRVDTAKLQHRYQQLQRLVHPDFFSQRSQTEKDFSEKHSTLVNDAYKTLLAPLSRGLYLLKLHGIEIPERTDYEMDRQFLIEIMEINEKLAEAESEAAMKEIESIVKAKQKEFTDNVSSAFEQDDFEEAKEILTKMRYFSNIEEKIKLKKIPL
UniProt P17482: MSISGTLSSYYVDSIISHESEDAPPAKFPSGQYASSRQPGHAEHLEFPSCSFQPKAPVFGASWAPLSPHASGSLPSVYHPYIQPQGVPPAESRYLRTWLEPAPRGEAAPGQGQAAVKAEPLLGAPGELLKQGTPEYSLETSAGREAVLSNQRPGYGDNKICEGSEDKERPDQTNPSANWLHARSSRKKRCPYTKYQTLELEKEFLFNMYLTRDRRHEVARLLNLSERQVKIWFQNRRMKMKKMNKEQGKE
UniProt P30519: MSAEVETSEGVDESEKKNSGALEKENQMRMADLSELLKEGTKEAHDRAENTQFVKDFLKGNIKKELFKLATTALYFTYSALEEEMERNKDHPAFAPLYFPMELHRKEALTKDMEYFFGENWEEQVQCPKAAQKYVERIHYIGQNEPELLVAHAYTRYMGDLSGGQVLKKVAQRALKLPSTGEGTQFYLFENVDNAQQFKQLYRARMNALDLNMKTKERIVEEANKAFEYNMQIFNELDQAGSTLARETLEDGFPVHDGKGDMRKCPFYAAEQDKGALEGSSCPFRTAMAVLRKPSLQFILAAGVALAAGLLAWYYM
UniProt O94992, whole entry, looked up: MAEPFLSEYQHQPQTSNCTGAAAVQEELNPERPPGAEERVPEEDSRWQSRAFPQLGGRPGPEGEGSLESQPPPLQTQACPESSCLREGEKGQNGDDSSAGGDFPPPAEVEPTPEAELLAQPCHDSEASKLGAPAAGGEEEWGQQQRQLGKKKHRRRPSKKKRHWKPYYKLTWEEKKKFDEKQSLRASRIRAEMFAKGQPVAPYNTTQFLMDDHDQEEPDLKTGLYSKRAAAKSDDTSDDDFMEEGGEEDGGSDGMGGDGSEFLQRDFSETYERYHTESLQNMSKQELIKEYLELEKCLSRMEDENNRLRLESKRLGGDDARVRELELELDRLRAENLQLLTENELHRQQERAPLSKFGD
UniProt Q9NQE9: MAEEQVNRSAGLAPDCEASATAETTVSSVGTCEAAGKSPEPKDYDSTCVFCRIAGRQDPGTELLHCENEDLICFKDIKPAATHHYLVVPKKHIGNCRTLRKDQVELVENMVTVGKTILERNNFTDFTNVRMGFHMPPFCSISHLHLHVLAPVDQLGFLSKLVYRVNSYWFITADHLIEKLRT

What was measured:
Test in all cases: log2 fold change, soluble protein after heating vs DMSO (PISA); higher = thermal stabilisation; K562 lysate, 10 uM; active = over 0.2 and 3.5 SD of the protein, either way, in both replicates (recomputed)
erlotinib = compound: C#Cc1cccc(Nc2ncnc3cc(OCCOC)c(OCCOC)cc23)c1 [erlotinib]
Method in brief: (§1)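 Quantification was by TMTpro 16plex LC-MS/MS with equalised channel sums, applied to the supernatant after 21,000xg for 90 min. Samples were crude K562 extract at 1 mg/mL protein in PBS pH 7.4 with 1 mM MgCl2, treated with 10 μM compound for 30 min, heated for 3 min across 48°C-58°C, pooled and brought to 0.5% NP-40 at 4°C. Values are log-two fold changes in thermal stability relative to solvent controls, from duplicates.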

[1] = compound: C/C(=N\NC(=O)C1=CC(=CC=C1)S(=O)(=O)N2CCOCC2)/C3=C(C=CC(=C3)Cl)O
Method in brief: as §1

[2] = compound: C1=CC(=CC=C1C2=NC3=C(N2)C=C(C=C3)C(=O)N)OC4=CC=C(C=C4)Cl
Method in brief: as §1

[3] = compound: C1=CC2=C(C=CC(=C2)/C=C\3/C(=O)NC(=NCC4=CC=CS4)S3)N=C1
Method in brief: as §1

[4] = compound: C1=CC2=NC=CN=C2C=C1/C=C/3\C(=O)NC(=O)S3
Method in brief: as §1

[5] = compound: C1=CC=C(C=C1)C2=NC(=C(N2)C3=CC=NC=C3)C4=CC(=C(C=C4)Cl)O
Method in brief: as §1

[6] = compound: C1=CC=C2C(=C1)C3=NNC4=CC=CC(=C43)C2=O
Method in brief: as §1

[7] = compound: C1CCN(C1)C(=O)NC2=CC=CC(=C2)NC3=NC=C(C(=N3)NCCC4=CN=CN4)Br
Method in brief: as §1

[8] = compound: C1CN(CCC1(CC2=CC=C(C=C2)Cl)N)C3=NC=NC4=C3C=CN4
Method in brief: as §1

IRAK-1-4 Inhibitor I = compound: C1COCCN1CCN2C3=CC=CC=C3N=C2NC(=O)C4=CC(=CC=C4)[N+](=O)[O-] [IRAK-1-4 Inhibitor I]
Method in brief: as §1

Measured: log2 fold change

HECTD1 (UniProt Q9ULT8)
inactive: erlotinib 0.034 | [1] 0.01 | [2] 0.009 | [3] -0.033 | [4] 0 | [5] 0.008 | [6] -0.008 | [7] -0.018 | [8] -0.001 | IRAK-1-4 Inhibitor I -0.001

HK2 (UniProt P52789)
inactive: erlotinib 0.013 | [1] 0.007 | [2] -0.045 | [3] 0.019 | [4] -0.01 | [5] 0.026 | [6] -0.027 | [7] -0.016 | [8] 0.004 | IRAK-1-4 Inhibitor I -0.002

HNRNPC (UniProt P07910)
inactive: erlotinib -0.007 | [1] 0.031 | [2] -0.016 | [3] -0.003 | [4] -0.021 | [5] 0.015 | [6] -0.017 | [7] 0.023 | [8] 0.002 | IRAK-1-4 Inhibitor I -0.016

HIST2H2AA3 (UniProt Q6FI13)
inactive: erlotinib -0.012 | [1] -0.956 | [2] 0.002 | [3] -0.054 | [4] -0.05 | [5] 0.126 | [6] 0.012 | [7] 0.083 | [8] 0.019 | IRAK-1-4 Inhibitor I -0.055

HSD17B8 (UniProt Q92506)
inactive: erlotinib 0.003 | [1] 0.041 | [2] -0.091 | [3] -0.099 | [4] 0.009 | [5] 0.018 | [6] 0.018 | [7] -0.011 | [8] 0.026 | IRAK-1-4 Inhibitor I 0.006

HSPA5 (UniProt P11021)
inactive: erlotinib -0.048 | [1] -0.012 | [2] -0.017 | [3] -0.014 | [4] -0.005 | [5] -0.012 | [6] 0.042 | [7] 0.045 | [8] -0.036 | IRAK-1-4 Inhibitor I -0.019

HERC4 (UniProt Q5GLZ8)
inactive: erlotinib 0.002 | [1] 0.006 | [2] -0.007 | [3] 0.017 | [4] -0.029 | [5] -0.006 | [6] -0.015 | [7] -0.028 | [8] 0.024 | IRAK-1-4 Inhibitor I -0.021

HNRNPF (UniProt P52597)
inactive: erlotinib -0.022 | [1] 0.028 | [2] 0.018 | [3] -0.012 | [4] -0.004 | [5] 0 | [6] -0.039 | [7] -0.016 | [8] 0.017 | IRAK-1-4 Inhibitor I 0.018

HSPA4 (UniProt P34932)
inactive: erlotinib -0.023 | [1] 0.012 | [2] 0.005 | [3] -0.007 | [4] -0.01 | [5] -0.003 | [6] -0.013 | [7] 0.007 | [8] -0.002 | IRAK-1-4 Inhibitor I -0.018

HNRNPAB isoform 3 (UniProt Q99729)
inactive: erlotinib -0.032 | [1] -0.214 | [2] 0.017 | [3] -0.007 | [4] 0.002 | [5] -0.001 | [6] -0.012 | [7] 0.003 | [8] 0 | IRAK-1-4 Inhibitor I 0.009

HIRIP3 (UniProt Q9BW71)
inactive: erlotinib -0.033 | [1] -0.004 | [2] 0.045 | [3] -0.002 | [4] -0.008 | [5] -0.003 | [6] -0.023 | [7] -0.008 | [8] -0.009 | IRAK-1-4 Inhibitor I 0.001

HRC (UniProt P23327)
inactive: erlotinib 0.014 | [1] -0.019 | [2] 0.061 | [3] 0 | [4] -0.049 | [5] 0.031 | [6] -0.049 | [7] 0.024 | [8] 0.032 | IRAK-1-4 Inhibitor I -0.001

HERC1 (UniProt Q15751)
inactive: erlotinib 0.027 | [1] 0.018 | [2] 0.013 | [3] 0.006 | [4] 0.001 | [5] 0 | [6] -0.012 | [7] -0.015 | [8] 0.023 | IRAK-1-4 Inhibitor I -0.011

HEPH isoform 3 (UniProt Q9BQS7)
inactive: erlotinib -0.026 | [1] -0.014 | [2] 0.037 | [3] 0.005 | [4] 0.002 | [5] -0.026 | [6] 0.002 | [7] -0.067 | [8] -0.044 | IRAK-1-4 Inhibitor I 0.005

HS2ST1 (UniProt Q7LGA3)
inactive: erlotinib -0.062 | [1] -0.036 | [2] -0.001 | [3] 0.007 | [4] 0.002 | [5] -0.035 | [6] 0.07 | [7] -0.02 | [8] -0.009 | IRAK-1-4 Inhibitor I -0.004

HNRNPA1 (UniProt P09651)
inactive: erlotinib 0.015 | [1] -0.033 | [2] -0.002 | [3] -0.034 | [4] 0.017 | [5] 0.009 | [6] -0.014 | [7] 0.028 | [8] 0.018 | IRAK-1-4 Inhibitor I -0.007

HIST2H3A (UniProt Q71DI3)
inactive: erlotinib 0.025 | [1] 0.257 | [2] 0.025 | [3] -0.026 | [4] -0.045 | [5] 0.032 | [6] -0.001 | [7] 0.043 | [8] -0.02 | IRAK-1-4 Inhibitor I -0.03

HSPA1A (UniProt P0DMV8)
inactive: erlotinib -0.022 | [1] 0.022 | [2] 0.03 | [3] -0.004 | [4] -0.03 | [5] 0.002 | [6] 0.016 | [7] -0.005 | [8] -0.038 | IRAK-1-4 Inhibitor I -0.003

HS1BP3 (UniProt Q53T59)
inactive: erlotinib -0.019 | [1] -0.04 | [2] 0.007 | [3] -0.013 | [4] -0.027 | [5] -0.031 | [6] 0.029 | [7] -0.022 | [8] 0.01 | IRAK-1-4 Inhibitor I 0.01

HMBOX1 isoform 5 (UniProt Q6NT76)
inactive: erlotinib 0.045 | [1] -0.094 | [2] -0.004 | [3] 0.026 | [4] -0.037 | [5] -0.004 | [6] -0.057 | [7] -0.028 | [8] 0.004 | IRAK-1-4 Inhibitor I -0.009

7 successive entries already listed, for reference:
HIRIP3 (UniProt Q9BW71)
inactive: erlotinib -0.033 | [1] -0.004 | [2] 0.045 | [3] -0.002 | [4] -0.008 | [5] -0.003 | [6] -0.023 | [7] -0.008 | [8] -0.009 | IRAK-1-4 Inhibitor I 0.001

HRC (UniProt P23327)
inactive: erlotinib 0.014 | [1] -0.019 | [2] 0.061 | [3] 0 | [4] -0.049 | [5] 0.031 | [6] -0.049 | [7] 0.024 | [8] 0.032 | IRAK-1-4 Inhibitor I -0.001

HERC1 (UniProt Q15751)
inactive: erlotinib 0.027 | [1] 0.018 | [2] 0.013 | [3] 0.006 | [4] 0.001 | [5] 0 | [6] -0.012 | [7] -0.015 | [8] 0.023 | IRAK-1-4 Inhibitor I -0.011

HEPH isoform 3 (UniProt Q9BQS7)
inactive: erlotinib -0.026 | [1] -0.014 | [2] 0.037 | [3] 0.005 | [4] 0.002 | [5] -0.026 | [6] 0.002 | [7] -0.067 | [8] -0.044 | IRAK-1-4 Inhibitor I 0.005

HS2ST1 (UniProt Q7LGA3)
inactive: erlotinib -0.062 | [1] -0.036 | [2] -0.001 | [3] 0.007 | [4] 0.002 | [5] -0.035 | [6] 0.07 | [7] -0.02 | [8] -0.009 | IRAK-1-4 Inhibitor I -0.004

HNRNPA1 (UniProt P09651)
inactive: erlotinib 0.015 | [1] -0.033 | [2] -0.002 | [3] -0.034 | [4] 0.017 | [5] 0.009 | [6] -0.014 | [7] 0.028 | [8] 0.018 | IRAK-1-4 Inhibitor I -0.007

HIST2H3A (UniProt Q71DI3)
inactive: erlotinib 0.025 | [1] 0.257 | [2] 0.025 | [3] -0.026 | [4] -0.045 | [5] 0.032 | [6] -0.001 | [7] 0.043 | [8] -0.02 | IRAK-1-4 Inhibitor I -0.03

More results.

HMGA1 (UniProt P17096)
inactive: erlotinib -0.037 | [1] -0.053 | [2] -0.001 | [3] -0.026 | [4] -0.053 | [5] -0.007 | [6] 0.026 | [7] 0.036 | [8] 0.013 | IRAK-1-4 Inhibitor I -0.022

HSCB (UniProt Q8IWL3)
inactive: erlotinib -0.044 | [1] -0.209 | [2] -0.057 | [3] -0.14 | [4] -0.028 | [5] -0.08 | [6] -0.088 | [7] 0.009 | [8] -0.024 | IRAK-1-4 Inhibitor I -0.053

HOXB9 (UniProt P17482)
inactive: erlotinib 0.028 | [1] -0.022 | [2] 0.098 | [3] 0.025 | [4] -0.2 | [5] -0.116 | [6] 0.025 | [7] -0.109 | [8] 0.033 | IRAK-1-4 Inhibitor I 0

HMOX2 (UniProt P30519)
inactive: erlotinib -0.049 | [1] 0.029 | [2] 0.04 | [3] -0.001 | [4] 0.016 | [5] -0.021 | [6] 0.028 | [7] -0.004 | [8] -0.038 | IRAK-1-4 Inhibitor I -0.046

HEXIM1 (UniProt O94992)
inactive: erlotinib -0.042 | [1] -0.049 | [2] 0.03 | [3] -0.019 | [4] -0.036 | [5] -0.015 | [6] -0.016 | [7] -0.021 | [8] -0.008 | IRAK-1-4 Inhibitor I 0.034

HMBS (UniProt P08397)
inactive: erlotinib 0 | [1] -0.009 | [2] 0.014 | [3] 0.012 | [4] -0.009 | [5] 0.017 | [6] 0.042 | [7] 0.023 | [8] -0.022 | IRAK-1-4 Inhibitor I 0.022

HINT2 (UniProt Q9BX68)
inactive: erlotinib -0.044 | [1] 0.063 | [2] -0.07 | [3] 0.052 | [4] -0.018 | [5] -0.09 | [6] 0.049 | [7] -0.011 | [8] 0.027 | IRAK-1-4 Inhibitor I -0.077

HEXD isoform 2 (UniProt Q8WVB3)
inactive: erlotinib 0.175 | [1] 0.096 | [2] 0.198 | [3] -0.163 | [4] 0.176 | [5] -0.221 | [6] -0.042 | [7] 0.039 | [8] -0.01 | IRAK-1-4 Inhibitor I -0.11

HSF1 (UniProt Q00613)
inactive: erlotinib 0.035 | [1] 0.013 | [2] -0.055 | [3] 0.016 | [4] 0.033 | [5] 0.035 | [6] 0 | [7] -0.037 | [8] -0.012 | IRAK-1-4 Inhibitor I -0.019

HINT3 (UniProt Q9NQE9)
inactive: erlotinib 0.034 | [1] -0.026 | [2] 0.04 | [3] 0.048 | [4] -0.038 | [5] 0.06 | [6] 0.076 | [7] 0.014 | [8] -0.046 | IRAK-1-4 Inhibitor I 0.026
